Reference: PubChem BioAssay AID1259254 (NCATS, 2017)
Aim: 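Finding genes that stop cells copying their DNA twice in one cycle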 (primary screen). Cell system: human HCT116 colorectal cancer cells. Reagent: single siRNA against human genes. Time to read-out: 3 days. Read-out: 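Imaged Hoechst DNA stain sorts each cell into a cycle phase by DNA amount; per plate, G2 fraction set to 0% for non-targeting and 100% for GMNN siRNA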. Reading the numbers: G2 robust z-score and G2 cells, % of GMNN control: higher = more G2 cells, more excess DNA replication. Call rule: 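Active siRNAs have a G2 robust z of 5 or more median absolute deviations over the median, which in these data means about 38% or higher of GMNN control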.
The whole screen tested about 59,000 reagents; shown is a part drawn at random. In the full data, about 1,550 (2.6%) were called active. 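G2 share is only a proxy for re-replication; each gene was hit by three separate siRNAs, and active genes were retested.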 Unmarked entries are inactive. Reagents against one gene are numbered here. Not all columns of the deposit are shown. Not given: the amount of reagent.

Depletion of CT62 #1 resulted in: G2 robust z-score 3.88; G2 cells, % of GMNN control 30.3.
For CT62 #2 the deposit lists G2 robust z-score 0.817; G2 cells, % of GMNN control 8.71.
Depletion of CT62 #3 resulted in: G2 robust z-score -0.762; G2 cells, % of GMNN control -2.39.
After knock-down of TRIM7 #1, the record shows G2 robust z-score 0.278; G2 cells, % of GMNN control 4.92.
TRIM7 #2 gave G2 robust z-score 0.953; G2 cells, % of GMNN control 9.67.
Against TRIM7 #3, the entry reads G2 robust z-score -0.891; G2 cells, % of GMNN control -3.3.
Depletion of ANKRD28 #1 resulted in: G2 robust z-score 3.52; G2 cells, % of GMNN control 27.7.
Against ANKRD28 #2 the deposit lists G2 robust z-score -0.796; G2 cells, % of GMNN control -2.63.
For ANKRD28 #3, the entry reads G2 robust z-score -0.221; G2 cells, % of GMNN control 1.41.
Silencing of MAP4K5 #1 gave: G2 robust z-score -0.887; G2 cells, % of GMNN control -3.27.
Silencing of MAP4K5 #2 gave: G2 robust z-score 0.23; G2 cells, % of GMNN control 4.59.
After knock-down of MAP4K5 #3, the screen gave G2 robust z-score -1.06; G2 cells, % of GMNN control -4.5.
After knock-down of GSDMD #1, the screen gave G2 robust z-score 5.61 (active); G2 cells, % of GMNN control 42.4.
With knock-down of GSDMD #2, the screen gave G2 robust z-score 0.537; G2 cells, % of GMNN control 6.75.
GSDMD #3 scored G2 robust z-score 1.99; G2 cells, % of GMNN control 16.9.

Targets listed so far whose gene name begins with G or g:
GSDMD #1: G2 robust z-score = 5.61 (active); G2 cells, % of GMNN control = 42.4
GSDMD #2: G2 robust z-score = 0.537; G2 cells, % of GMNN control = 6.75
GSDMD #3: G2 robust z-score = 1.99; G2 cells, % of GMNN control = 16.9

The listing continues:
After knock-down of PPL #1, the record shows G2 robust z-score 0.602; G2 cells, % of GMNN control 7.2.
Against PPL #2, the entry reads G2 robust z-score 0.574; G2 cells, % of GMNN control 7.01.
PPL #3 gave G2 robust z-score 0.0308; G2 cells, % of GMNN control 3.18.
For ARL9 #1, the values are G2 robust z-score -1.5; G2 cells, % of GMNN control -7.57.
ARL9 #2 showed G2 robust z-score -1.17; G2 cells, % of GMNN control -5.29.
Against ARL9 #3, the values are G2 robust z-score 0.213; G2 cells, % of GMNN control 4.46.
MRPL1 #1 showed G2 robust z-score 0.144; G2 cells, % of GMNN control 3.98.
Silencing of MRPL1 #2 gave: G2 robust z-score -0.385; G2 cells, % of GMNN control 0.259.
MRPL1 #3 gave G2 robust z-score 0.213; G2 cells, % of GMNN control 4.47.
